Holding throughout (experiment): EMSA
On the technique in general: In EMSA bound probe runs differently from free probe, usually more slowly.

The target in data set [1] is T1, Swi2N (Schizosaccharomyces pombe) (UniProt Q10668).
T1 sequence (looked up): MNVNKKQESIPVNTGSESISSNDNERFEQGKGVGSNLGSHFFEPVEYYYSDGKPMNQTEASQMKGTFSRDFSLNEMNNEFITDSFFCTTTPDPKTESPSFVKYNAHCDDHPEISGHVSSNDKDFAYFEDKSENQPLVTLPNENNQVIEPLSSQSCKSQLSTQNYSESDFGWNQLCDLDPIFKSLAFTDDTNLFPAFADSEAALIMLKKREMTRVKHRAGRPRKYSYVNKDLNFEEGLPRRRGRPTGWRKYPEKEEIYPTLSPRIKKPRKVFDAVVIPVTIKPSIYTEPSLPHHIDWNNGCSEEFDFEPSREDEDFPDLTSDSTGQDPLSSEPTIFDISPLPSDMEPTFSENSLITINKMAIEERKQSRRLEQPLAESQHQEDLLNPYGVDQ
Conditions: 20 mM Tris-HCl pH 7.5, 100 mM NaCl, 5% glycerol, 1 mM DTT, room temperature 10 min; 1% agarose in TAE; recombinant protein; residues 1-391; protein details: His-SUMO removed by Ulp1; probe letters rebuilt from the primers and the genome.

Data set [2] has as its target T2, Swi2N AT1-A G219A,R220A,P221A (Schizosaccharomyces pombe) (UniProt Q10668).
T2 sequence (looked up): T1 sequence (looked up) with G219A, R220A, P221A
Conditions: 20 mM Tris-HCl pH 7.5, 100 mM NaCl, 5% glycerol, 1 mM DTT, room temperature 10 min, 1% agarose in TAE, recombinant protein, residues 1-391, protein details: His-SUMO removed by Ulp1, probe letters rebuilt from the primers and the genome.

Data set [3] concerns the target T3, Swi2N AT12-AA G219A,R220A,P221A,G242A,R243A,P244A (Schizosaccharomyces pombe) (UniProt Q10668).
T3 sequence (looked up): T1 sequence (looked up) with G219A, R220A, P221A, G242A, R243A, P244A
The conditions noted are these: 20 mM Tris-HCl pH 7.5, 100 mM NaCl, 5% glycerol, 1 mM DTT, room temperature 10 min, 1% agarose in TAE, recombinant protein, residues 1-391, protein details: His-SUMO removed by Ulp1, probe letters rebuilt from the primers and the genome.

In data set [4] the test system is Swi2C + Swi5. The conditions noted are these: modest binding; 20 mM Tris-HCl pH 7.5, 100 mM NaCl, 5% glycerol, 1 mM DTT, room temperature 10 min; 1% agarose in TAE; recombinant protein; protein details: His-SUMO removed by Ulp1; probe letters rebuilt from the primers and the genome.
Data set [5] has as its target T4, Swi2N AT2-A G242A,R243A,P244A (Schizosaccharomyces pombe) (UniProt Q10668).
T4 sequence (looked up): T1 sequence (looked up) with G242A, R243A, P244A
The conditions noted are these: 20 mM Tris-HCl pH 7.5, 100 mM NaCl, 5% glycerol, 1 mM DTT, room temperature 10 min, 1% agarose in TAE, recombinant protein, residues 1-391, protein details: His-SUMO removed by Ulp1, probe letters rebuilt from the primers and the genome.

Substitutions are numbered along the chain they refer to. For part of these data: The comparison behind a weaker result is the experiment's own reference, which may not be listed here. For part of these data: Where a protein sequence is shown, tags need not be part of it. For part of these data: For at least one entry, the source does not settle the construct or the ends of the probe. For part of these data: At least one verdict rests on a figure or table, not on a statement of the authors.

On to “AGAATGCTCTATGGTTGAGGAAGTGGAACGTAAGATATTAAAGGAATAGGGATGTGAATGTAAAGAGTGGGTAGATGCATTTGGGATGAGGTTTAATATATGTTTATAAAGGAAAATGGCTAATGGATATGAAGTATTGGTGTAAGGAGTTCAAGATGTATGGGGAGAAAGAGGATGGTTGATGGAGTGGTTGAGCGAGGAAAGTGTTGAAGTATAGTGTGTATGGTAGGAATGAGTAATGAGATGTAGTGAAAGTATAATATTAGTGAGTATATTATGGTAGGGAGTGCGTAGCGTAGCGAAGCAAATATCTCGTTAGAGGGAAGGGGAAGGTAGAAGGGCGCACACAAAAAGGGAAAATTGGAGGGAGAATGAATGACACGAACAGCATAATTGGAAA (double strand) [mat1 400 bp]”, for which the binding result in data set [1] is recorded as “binds”; in data set [2] (similar trend to SRE3), “binds more weakly”; in data set [3] (similar trend to SRE3), “binds more weakly”; in data set [4] it was “binds”; in data set [5] (similar trend to SRE3) it was “binds more weakly”.
In the case of “GCGAAGCATATTTCTTGCTAATCTTTTGTTTTATATTTAAAATGTTTTAAATATAGGCACAAAATAACGTGAAATCAACCACAAGGTAAATTTACTATAATATTTATTTTTATAATAAGAATCATCAGCAATTGGTAATAATTATTTTTGGTAAATTGAGTAATATATTAACGCTTTATAAATTCGTTTATTAATCCTGTTTAAAATCAAATCGCATTTAATTGCTTAAAATACAGATGCCAATAACTTCGTGGTATTCGGAAATATCGGTATCCAAAAAGGGATTTTTATTTTAATTCAACAATTAAAATTAATGTATGAAATAAATTTGATGAATATGTAAGTATTTAAACGATTTCGACGGATATGATCTACAATGCTGAACAGCATAATCACAAAC (double strand) [SRE2 400 bp]”, the binding result in data set [1] is listed as “binds”; in data set [2] (similar trend to SRE3) it was “binds more weakly”; in data set [3] (similar trend to SRE3), “binds more weakly”; in data set [4], “binds”; in data set [5] (similar trend to SRE3), “binds more weakly”.
In the case of “GGGTAAGAAGAACTTTTATTTATTTATTTGCCAACTACTGTTAGATATTTTTGAGCAAGTTATTTTATTTTAACTTAAAAATATGTTTCCAGTTTTCAAAAAAATTATATTAAAGCGCCTAGCGATTGATGTCAGTGAAATATTTGTAGTGAATGTGTTGAGAAAAACTGTACAAATGATCACGTTTAATAGGTAAAACAATTCTAATTTATTAATTTACTATATACTCAATATCAGGTTATAATTTGAACATTATAGTTGTTGCTAAATGATGATATCGTTATGTTGGCAAAACGATTGCTTTTTTTGTTTAAAACTATTCTAAACTGCTTTTAAAAACACAAAATGCGCATTTTTTCCCAAAAGACAGACTATCGGCCAAACAAACATATTTGGATAA (double strand) [SRE3 400 bp]”, the binding result is “binds” in data set [1]; “binds more weakly” in data set [2] (slightly reduced shift); “binds more weakly” in data set [3] (drastically reduced, no stable complex); “binds” in data set [4]; “binds more weakly” in data set [5] (slightly reduced shift).

Source of the values: publication PMC10164574, “Fission yeast Swi2 designates cell-type specific donor and stimulates Rad51-driven strand exchange for mating-type switching”.
